{"source": "paper PMC4439739", "binders": {"B1": {"name": "SAMM50, endogenous (protein, UniProt Q9Y512 1-469)", "chain": "MGTVHARSLEPLPSSGPDFGGLGEEAEFVEVEPEAKQEILENKDVVVQHVHFDGLGRTKDDIIICEIGDVFKAKNLIEVMRKSHEAREKLLRLGIFRQVDVLIDTCQGDDALPNGLDVTFEVTELRRLTGSYNTMVGNNEGSMVLGLKLPNLLGRAEKVTFQFSYGTKETSYGLSFFKPRPGNFERNFSVNLYKVTGQFPWSSLRETDRGMSAEYSFPIWKTSHTVKWEGVWRELGCLSRTASFAVRKESGHSLKSSLSHAMVIDSRNSSILPRRGALLKVNQELAGYTGGDVSFIKEDFELQLNKQLIFDSVFSASFWGGMLVPIGDKPSSIADRFYLGGPTSIRGFSMHSIGPQSEGDYLGGEAYWAGGLHLYTPLPFRPGQGGFGELFRTHFFLNAGNLCNLNYGEGPKAHIRKLAECIRWSYGAGIVLRLGNIARLELNYCVPMGVQTGDRICDGVQFGAGIRFL"}}, "target": "T1, MIC60 (Mitofilin, IMMT), endogenous (human (endogenous in 293T and HCT116)) (UniProt Q16891)", "T1 sequence": "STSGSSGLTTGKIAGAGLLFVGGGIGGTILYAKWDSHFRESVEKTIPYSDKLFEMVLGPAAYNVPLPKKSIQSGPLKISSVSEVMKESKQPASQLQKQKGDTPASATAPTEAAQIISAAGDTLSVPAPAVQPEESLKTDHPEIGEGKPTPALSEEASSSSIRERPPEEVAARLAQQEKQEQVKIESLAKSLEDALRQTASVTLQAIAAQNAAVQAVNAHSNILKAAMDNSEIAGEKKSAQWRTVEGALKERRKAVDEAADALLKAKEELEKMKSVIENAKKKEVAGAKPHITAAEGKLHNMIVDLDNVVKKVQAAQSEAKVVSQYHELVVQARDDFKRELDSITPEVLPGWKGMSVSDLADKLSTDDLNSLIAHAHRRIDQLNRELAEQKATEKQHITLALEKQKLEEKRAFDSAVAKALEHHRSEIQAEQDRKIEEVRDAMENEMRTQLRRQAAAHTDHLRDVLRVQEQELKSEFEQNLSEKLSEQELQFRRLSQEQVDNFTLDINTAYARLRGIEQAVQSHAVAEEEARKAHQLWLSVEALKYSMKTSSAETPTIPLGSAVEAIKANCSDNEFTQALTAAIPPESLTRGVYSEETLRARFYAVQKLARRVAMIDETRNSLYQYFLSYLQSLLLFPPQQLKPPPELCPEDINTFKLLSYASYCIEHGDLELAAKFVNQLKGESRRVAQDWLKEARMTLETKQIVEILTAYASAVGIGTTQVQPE", "experiment": "co-IP; endogenous MIC60 immunopurified from crude mitochondria isolated from HCT116 cells stably expressing FF2 (control) or QIL1 shRNA; immunoblot, densitometry", "note": "Results are given in words; binding and its absence hold for the method and conditions named. Binding seen in cells or lysates may run through a third protein. Some results given as binding are weak or reduced against the parent protein; the word gives no strength."}
{"binder": "B1", "values": [{"measurement": "binding", "result": "binds"}]}
